Results of single-concentration screens

Protein sequences, listed by entry. Tags and fused reporters are not part of them.
UniProt P9WPC5, whole entry: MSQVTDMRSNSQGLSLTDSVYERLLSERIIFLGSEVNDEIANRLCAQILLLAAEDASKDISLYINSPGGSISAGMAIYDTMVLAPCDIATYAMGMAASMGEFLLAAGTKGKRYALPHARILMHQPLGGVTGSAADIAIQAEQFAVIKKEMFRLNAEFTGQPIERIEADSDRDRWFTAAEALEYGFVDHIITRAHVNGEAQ
UniProt P9WPC3, whole entry partner: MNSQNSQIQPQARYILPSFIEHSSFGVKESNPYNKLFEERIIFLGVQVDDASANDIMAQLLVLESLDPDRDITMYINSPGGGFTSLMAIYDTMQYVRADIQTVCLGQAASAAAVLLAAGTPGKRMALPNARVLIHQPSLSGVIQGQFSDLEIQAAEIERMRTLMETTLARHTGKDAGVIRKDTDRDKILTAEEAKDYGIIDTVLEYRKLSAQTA
UniProt P9WNZ1, whole entry: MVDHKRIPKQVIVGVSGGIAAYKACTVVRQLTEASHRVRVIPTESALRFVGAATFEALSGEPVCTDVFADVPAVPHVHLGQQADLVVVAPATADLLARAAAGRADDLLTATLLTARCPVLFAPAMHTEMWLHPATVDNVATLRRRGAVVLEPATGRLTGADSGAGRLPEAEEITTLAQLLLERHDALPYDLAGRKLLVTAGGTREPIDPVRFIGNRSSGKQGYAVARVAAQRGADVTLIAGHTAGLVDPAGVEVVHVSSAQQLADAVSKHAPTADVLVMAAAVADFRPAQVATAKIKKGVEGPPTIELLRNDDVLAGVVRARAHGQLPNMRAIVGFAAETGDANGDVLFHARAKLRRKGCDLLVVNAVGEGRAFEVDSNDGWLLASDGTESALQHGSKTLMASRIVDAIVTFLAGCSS

Data taken from ChEMBL document CHEMBL3988442, “University of Dundee, Small-Polar-MMV Screening Library” (2021).

ClpP1P2: 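ClpP1P2, Mycobacterium tuberculosis (UniProt P9WPC5 and UniProt P9WPC3). Protease assay of ClpP1P2, read by the AMC dye that it sets free. Tested at 50 µM. Direction is inferred from only a few compounds that gave an IC50; most scored high, so higher reads as stronger inhibition. Most other retested compounds had strongly negative values. Size under these conditions: about 69,000 compounds, about 10 of them at 50% or above in at least one test.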
CoaBC: 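Coenzyme A biosynthesis protein CoaBC, Mycobacterium tuberculosis (UniProt P9WNZ1). Enzyme assay of CoaBC with a phosphate dye (Biomol Green) read at 650 nm. Compounds at 30 µM. Higher reads as stronger inhibition, judged from the few compounds that gave an IC50. Most strong results did not repeat in a second test. Size under these conditions: about 67,000 compounds, about 40 of them at 50% or above in at least one test.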
Toxoplasma: 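Assay of Toxoplasma gondii numbers, read through their beta-galactosidase reporter with a colour substrate. Compounds at 10 µM. Higher reads as fewer parasites (inferred from which compounds were picked for retests). About 67,000 compounds were tested under these conditions; 0.38% (about 260) showed 50% or more at least once.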

Each number is a percent effect as filed.
The controls that fix the scale are not given in the record; negative values are as filed.
The compounds are a random part of those screened.
A dash means the value is not listed here; it may have been measured.

- CCOc1cc(Cl)c(CN2CCC3(CCCNC3=O)C2)cc1OC (stereo not drawn) : ClpP1P2: -10.78%; CoaBC: -0.2469%; Toxoplasma: 12.03%
- CC(=O)N1CCN(c2cc(-n3cccc3)ncn2)CC1 : ClpP1P2: -4.913%; CoaBC: 10.89%; Toxoplasma: 1.645%
- Fc1cccc(CN2CCC[C@@H](Cn3nnc(-c4ccccn4)n3)C2)c1 : ClpP1P2: 0.1056%; CoaBC: -9.685%; Toxoplasma: -8.2%
- CC(C)c1cnc(CNc2c(F)cccc2-n2cccn2)o1 : ClpP1P2: -7.743%; CoaBC: 5.063%; Toxoplasma: 18.49%
- COCCN(C)C[C@@H]1CN(C(=O)c2c(F)ccc(OC)c2F)C[C@@H]1CO : ClpP1P2: 7.603%; CoaBC: 4.97%; Toxoplasma: 11.94%
- CN(C)CCN1C(=O)CCC12CCCN(C(=O)c1ccncc1F)C2 (stereo not drawn) : ClpP1P2: -0.5183%; CoaBC: -1.818%
- [H][C@]12CC[C@]([H])(CN(Cc3cccc(C(=O)Nc4c(C)nn(C)c4C)c3)C1)N2 : Toxoplasma: 2.291%
- Cc1cc(C(=O)N(C)C)nc(C2(C)CCCN2c2ccccc2)n1 (stereo not drawn) : ClpP1P2: 1.797%; CoaBC: -5.519%; Toxoplasma: 0.9098%
- Cc1nc(CN2CC(=O)N(C)c3ccccc3C2=O)no1 : ClpP1P2: 1.255%; CoaBC: -2.41%; Toxoplasma: 3.45%
- O=C(CCN1CCC(C(=O)c2cc(F)ccc2F)CC1)NC1CC1 : ClpP1P2: -7.05%; CoaBC: 1.754%; Toxoplasma: 1.86%
- CN(C)CCNC(=O)Nc1cccc(C[S+]([O-])Cc2ccccc2)c1 (stereo not drawn) : ClpP1P2: -4.274%; CoaBC: -3.676%; Toxoplasma: 2.806%
- C[C@H](C(=O)N1Cc2ccccc2CC2(CCCN2C)C1)c1ccccc1 (stereo partly drawn) : ClpP1P2: 5.786%; CoaBC: -7.368%; Toxoplasma: 15.27%
- CN(C)c1cccc(C(=O)N2C[C@H]3CC[C@@H]2CN(C(=O)C2CCC2)C3)c1 : ClpP1P2: -1.883%; CoaBC: -0.1206%
- Cc1ccn(CC(=O)Nc2cc(-c3ccncc3)[nH]n2)n1 : ClpP1P2: -4.417%; CoaBC: -1.629%; Toxoplasma: 2.761%
- [H][C@@]12CCN(S(=O)(=O)N(C)C)C[C@@]1([H])O[C@H](c1ccnc(C)n1)C2 : Toxoplasma: 8.021%
- NS(=O)(=O)c1ccc(NCc2ccccc2)cc1C(F)(F)F : ClpP1P2: -18.32%; CoaBC: 0.8065%; Toxoplasma: 8.474%
- CN(C)C1CCN(C(=O)c2cc(-c3ccn(C)n3)n3ccccc23)CC1.O=C(O)C(F)(F)F : Toxoplasma: -16.67%
- Cc1nc2cc(=O)[nH]n2c(C)c1CC(=O)Nc1cn[nH]c1 : ClpP1P2: 1.342%; CoaBC: 1.827%; Toxoplasma: -1.202%
- Cn1ccnc1-c1ccc(NCCC2COc3ccccc3O2)nn1 (stereo not drawn) : ClpP1P2: -4.924%; CoaBC: 5.529%; Toxoplasma: -3.299%
- COc1cccc(CNCc2ccc(F)cc2Cl)c1O : ClpP1P2: -4.245%; CoaBC: -20.83%; Toxoplasma: 16.17%
- [H][C@]12CC[C@]([H])(CN(Cc3noc(C4CCCC4)n3)C1)N(CC1CCC1)C2 : Toxoplasma: -14.02%
- O=C1CCC(C(=O)NCCOc2cccc(Cl)c2Cl)CN1 (stereo not drawn) : ClpP1P2: 1.069%; CoaBC: -2.778%; Toxoplasma: -1.018%

Some entries from above, unchanged:

Compound	ClpP1P2	CoaBC	Toxoplasma
CCOc1cc(Cl)c(CN2CCC3(CCCNC3=O)C2)cc1OC (stereo not drawn)	-10.78	-0.2469	12.03
[H][C@]12CC[C@]([H])(CN(Cc3noc(C4CCCC4)n3)C1)N(CC1CCC1)C2	-	-	-14.02